Results from PubChem BioAssay AID264 (DTP/NCI, 2004).
The list is a part of this screen's results and no random one: it gathers tests that were run many times, whatever their T/C, doses with no T/C, and many T/C values between a quarter and a half above the control. Further doses and runs are listed elsewhere. T/C is the treated group as % of the vehicle group. Schedule codes are those of the source, read here as Q, the interval in days (D) or hours (H), X, the number of doses. Some doses have a count of surviving animals in place of a T/C: the source holds a T/C of zero for them, seemingly a mark for toxic or unscored doses. Counts of survivors are from the toxicity check (mostly the fifth day) where no day follows; animals may have died later. Numbered stars: 1 amine (or outer) side, 2 acyl side, 3 side chain; on linkers, the order of the positions; unused ones are H or OH. Bridge positions count the residues as written; N and C are the ends. Square brackets hold non-standard residues; d marks the D form. Peptide text beside a SMILES is read from it. I, II: the chains in the order shown. Actinocin(9to1) = Cc1c2oc3c(C)ccc(C(=O)[*:1])c3nc-2c(C(=O)[*:2])c(N)c1=O; aThr = C[C@H](O)[C@H](N)C(=O)O; NMeV = CN[C@H](C(=O)O)C(C)C; Sar = CNCC(=O)O

Test system: nude mice, LX-1 lung xenograft intrarenal, tumor weight T/C
Experiment: NCI In Vivo Anticancer Drug Screen. Data for tumor model Human Lung LX-1 Xenograft (intrarenal inoculation) in NU/NU Swiss (nude) mice
Conditions: T/C endpoint: mean tumor weight change, higher T/C = larger tumour; for T/C: evaluated on day 11
Procedure, shortened: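 Readout: T/C, i.e. treated-group tumor measurement over vehicle-control measurement. Mice bearing transplantable tumors were dosed with compound or vehicle.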

[1] = dose: 100.0 mg/kg/injection, schedule: Q04DX003 (sc), vehicle: saline

CCN(CC)CC[n+]1ccc2c(C)c3[nH]c4ccc(O)cc4c3c(C)c2c1
T/C (dose: 12.5 mg/kg/injection, schedule: Q04DX003 (sc), vehicle: suspension in saline): 139 % of control
survivor count (dose: 100.0 mg/kg/injection, schedule: Q04DX003 (sc), vehicle: suspension in saline): 3 of 6 on day 11

OCCN1CCN(CC/C=C2/c3ccccc3Sc3ccc(C(F)(F)F)cc32)CC1
survivor count (dose: 80.0 mg/kg/injection, schedule: Q01DX010 (sc), vehicle: saline): 0 of 3 on day 11

COC1CC(CC2CCC(C)C(C(C)C(=O)O)O2)OC2(OC(C)(C3CCC(C)(C4OC(C5OC(O)(CO)C(C)CC5C)CC4C)O3)CC2C)C1C (stereo not given)
T/C (dose: 15.0 mg/kg/injection, schedule: Q04DX003 (sc), vehicle: Klucel (hydroxypropylcellulose) (HPC)): 137 % of control

O=C/C(Cl)=C(/Cl)C(=O)O
survivor count (dose: 80.0 mg/kg/injection, schedule: Q01DX010 (sc), vehicle: saline with Tween-80): 0 of 3 on day 11
survivor count (dose: 160.0 mg/kg/injection, schedule: Q01DX010 (sc), vehicle: saline with Tween-80): 0 of 3 on day 11

OCCN1CCN(CC/C=C2/c3ccccc3Sc3ccc(Cl)cc32)CC1
survivor count [1]: 3 of 6 on day 11
survivor count (dose: 200.0 mg/kg/injection, schedule: Q04DX003 (sc), vehicle: saline): 2 of 6 on day 11
survivor count (dose: 400.0 mg/kg/injection, schedule: Q04DX003 (sc), vehicle: saline): 0 of 6 on day 11
survivor count (dose: 800.0 mg/kg/injection, schedule: Q04DX003 (sc), vehicle: saline): 0 of 6 on day 11

Cc1c2oc3c(C)ccc(C(=O)N[C@@H]4C(=O)N[C@H](C(C)C)C(=O)N5CCC[C@H]5C(=O)N(C)CC(=O)N(C)[C@@H](C(C)C)C(=O)O[C@H]4C)c3nc-2c(C(=O)N[C@@H]2C(=O)N[C@H](C(C)C)C(=O)N3CCC[C@H]3C(=O)N(C)CC(=O)N(C)[C@@H](C(C)C)C(=O)O[C@H]2C)c(N)c1=O (I: [aThr][dV]P[Sar][NMeV] / II: [aThr][dV]P[Sar][NMeV]; ester I:1-I:C, II:1-II:C; linker I:N-II:N via Actinocin(9to1))
survivor count (dose: 200.0 micrograms/kg/injection, schedule: Q01DX010 (sc), vehicle: saline): 1 of 3 on day 11
survivor count (dose: 400.0 micrograms/kg/injection, schedule: Q01DX010 (sc), vehicle: saline): 0 of 3 on day 11
survivor count (dose: 800.0 micrograms/kg/injection, schedule: Q01DX010 (sc), vehicle: saline): 0 of 3 on day 11

COc1cccc2c1C(=O)c1c(O)c3c(c(O)c1C2=O)C[C@@](O)(/C(C)=N/NC(=O)c1ccccc1)C[C@@H]3OC1CC(N)C(O)C(C)O1 (stereo not given in full)
survivor count (dose: 40.0 mg/kg/injection, schedule: Q04DX003 (sc), vehicle: water): 3 of 6 on day 11
survivor count (dose: 150.0 mg/kg/injection, schedule: Q04DX003 (sc), vehicle: water): 0 of 6 on day 11

COc1cc([C@@H]2c3cc4c(c(O)c3C[C@H]3COC(=O)[C@@H]32)OCO4)cc(OC)c1OC
survivor count (dose: 16.0 mg/kg/injection, schedule: Q01DX010 (sc), vehicle: saline): 0 of 3 on day 11

CCN(C)N=Nc1ccc(C(N)=O)cc1
survivor count (dose: 200.0 mg/kg/injection, schedule: Q01DX010 (sc), vehicle: Klucel (hydroxypropylcellulose) (HPC)): 0 of 3 on day 11
survivor count (dose: 400.0 mg/kg/injection, schedule: Q01DX010 (sc), vehicle: Klucel (hydroxypropylcellulose) (HPC)): 0 of 3 on day 11

O=c1n(CC2CO2)c(=O)n(CC2CO2)n1CC1CO1 (stereo not given)
survivor count (dose: 50.0 mg/kg/injection, schedule: Q04DX003 (sc), vehicle: saline): 2 of 6 on day 11
survivor count [1]: 0 of 6 on day 11

O=C(O)C(CSC(c1ccccc1)(c1ccccc1)c1ccccc1)N=Cc1cccs1 (stereo not given)
survivor count (dose: 800.0 mg/kg/injection, schedule: Q04DX003 (sc), vehicle: suspension in saline): 1 of 6 on day 11

CC1CC(C)CC(C)C(O)/C(C#N)=C/C=C/CC(C2CCCC2C(=O)O)OC(=O)CC(O)C(C)C1 (stereo not given)
survivor count (dose: 48.0 mg/kg/injection, schedule: Q04DX003 (sc), vehicle: Klucel (hydroxypropylcellulose) (HPC)): 0 of 6 on day 11

C[C@]12CCC(=O)C=C1CC[C@@H]1[C@@H]2[C@@H](O)C[C@@]2(C)[C@H]1CC[C@]2(O)C(=O)CO
survivor count (dose: 600.0 mg/kg/injection, schedule: Q04DX003 (sc), vehicle: Klucel (hydroxypropylcellulose) (HPC)): 3 of 5 on day 11
survivor count (dose: 1200.0 mg/kg/injection, schedule: Q04DX003 (sc), vehicle: Klucel (hydroxypropylcellulose) (HPC)): 1 of 5 on day 11
survivor count (dose: 2400.0 mg/kg/injection, schedule: Q04DX003 (sc), vehicle: Klucel (hydroxypropylcellulose) (HPC)): 0 of 6 on day 11
